Results from patent publication US20090239850A1.

Sequences of proteins named here, by UniProt entry; tags and fusion partners are left off. A change or cut given only in a name is not applied to a line headed by its entry. Residues count along the entry.
UniProt Q05397, residues 677-1052: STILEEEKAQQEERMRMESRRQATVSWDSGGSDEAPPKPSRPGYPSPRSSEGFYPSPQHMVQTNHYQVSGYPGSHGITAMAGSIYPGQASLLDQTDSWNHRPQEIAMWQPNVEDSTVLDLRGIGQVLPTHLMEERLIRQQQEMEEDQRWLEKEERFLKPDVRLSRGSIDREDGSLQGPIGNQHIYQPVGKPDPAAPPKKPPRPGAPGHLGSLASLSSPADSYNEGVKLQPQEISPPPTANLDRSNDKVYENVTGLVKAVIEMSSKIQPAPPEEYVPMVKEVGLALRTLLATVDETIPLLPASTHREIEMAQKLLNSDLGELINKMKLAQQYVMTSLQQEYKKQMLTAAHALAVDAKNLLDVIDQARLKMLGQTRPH
UniProt P35916: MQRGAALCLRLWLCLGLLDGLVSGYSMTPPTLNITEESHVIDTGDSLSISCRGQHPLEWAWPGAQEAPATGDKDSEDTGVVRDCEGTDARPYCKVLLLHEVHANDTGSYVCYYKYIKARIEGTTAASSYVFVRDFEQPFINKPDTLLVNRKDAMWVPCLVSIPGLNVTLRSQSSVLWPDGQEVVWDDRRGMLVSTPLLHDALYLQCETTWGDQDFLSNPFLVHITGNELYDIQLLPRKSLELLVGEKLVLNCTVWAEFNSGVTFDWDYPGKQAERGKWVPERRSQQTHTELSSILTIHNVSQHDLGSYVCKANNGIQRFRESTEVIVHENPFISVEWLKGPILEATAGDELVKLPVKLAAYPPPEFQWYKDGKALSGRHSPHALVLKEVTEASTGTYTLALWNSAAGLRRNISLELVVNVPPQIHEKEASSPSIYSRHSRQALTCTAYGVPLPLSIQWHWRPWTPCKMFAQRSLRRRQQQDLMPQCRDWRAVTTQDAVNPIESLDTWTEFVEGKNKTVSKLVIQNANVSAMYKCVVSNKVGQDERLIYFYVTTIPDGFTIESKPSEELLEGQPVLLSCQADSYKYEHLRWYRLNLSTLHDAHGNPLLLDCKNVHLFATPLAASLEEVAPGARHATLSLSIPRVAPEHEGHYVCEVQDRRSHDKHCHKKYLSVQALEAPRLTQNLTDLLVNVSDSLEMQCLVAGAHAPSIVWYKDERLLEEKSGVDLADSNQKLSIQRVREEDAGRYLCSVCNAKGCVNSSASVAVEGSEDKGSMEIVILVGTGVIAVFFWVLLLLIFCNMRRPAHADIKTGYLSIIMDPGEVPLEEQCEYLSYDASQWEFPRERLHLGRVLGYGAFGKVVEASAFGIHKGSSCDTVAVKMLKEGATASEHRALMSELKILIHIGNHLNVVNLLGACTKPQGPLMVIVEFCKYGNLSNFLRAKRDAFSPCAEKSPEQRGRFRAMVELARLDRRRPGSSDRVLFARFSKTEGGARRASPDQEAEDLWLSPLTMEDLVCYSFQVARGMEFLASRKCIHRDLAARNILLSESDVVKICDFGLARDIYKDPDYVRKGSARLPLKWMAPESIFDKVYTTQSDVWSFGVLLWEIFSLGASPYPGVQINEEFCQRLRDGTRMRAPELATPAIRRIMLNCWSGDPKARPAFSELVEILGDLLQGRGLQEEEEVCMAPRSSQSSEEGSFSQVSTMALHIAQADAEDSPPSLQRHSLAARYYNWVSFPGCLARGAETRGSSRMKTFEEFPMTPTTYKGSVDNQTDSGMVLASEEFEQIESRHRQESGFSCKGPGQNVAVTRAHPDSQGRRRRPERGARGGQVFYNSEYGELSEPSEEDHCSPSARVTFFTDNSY

Molecular target: C-terminus of FAK (UniProt Q05397)
Assay: in vitro and in vivo binding studies

## N-terminus of VEGFR-3, containing the peptide identified by phage display (from UniProt P35916) (receptor)
  binding: binds

No constants are given. Whether binding was seen depends on the method and setting. Binding can be weak; no strength is given.
